Reference: PubChem BioAssay AID1347423 (Functional Genomics Laboratory (NCATS/FGL), 2020)
About 210 (0.4%) of roughly 52,000 sequences were called active.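 The calls were made as follows: active = gene whose silencing raises cell survival under the drug, median off-target-corrected z-score across its silencing RNAs 2 or more; inactive = the rest.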 This is one part of the list.

assay: Resistance to Poly (ADP-Ribose) Polymerase inhibitor: Gene Identification via Genome-wide siRNA Screen; details: mouse BRCA2 R2336H ES cells, olaparib, CellTiter-Glo viability; hits give high values
How it was run: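 Genome-wide siRNA screen (3 siRNAs/gene, 20 nM) in mouse ES cells carrying hypomorphic BRCA2 R2336H; olaparib 500 nM added 48 h post-transfection, CellTiter-Glo viability 72 h later. Normalized to plate-median negative control; MAD z-scores, gene median, seed-adjusted.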

| Sequence | z-score |
| --- | --- |
| GGCCUCUGUCAUUUUAAAGTT against 2410008J05Rik | inactive: 0.773 |
| GCUUCAAAACAAACCCUUGTT against 5330431N24Rik | inactive: -0.118 |
| GCACCUCAAAAGAAUUCAUTT against 9430099J10Rik | inactive: 2.13 |
| GGCGUGUUUGCUAAUUUAUTT against Pkd1 | inactive: -0.387 |
| GCUAUGCUGUUUUAUGUGATT against Synpr | inactive: 0.895 |
| GGGAGACGGCGAGGUUUUATT against Arl6ip4 | inactive: 0.237 |
| GGAAGUAAAGCUCUACAAGTT against Vps28 | inactive: 0.804 |
| GGGAGGAAGAUGAUCCGGUTT against 1810008A14Rik | inactive: -0.585 |
| GGACUAUUCAAACCUAUAUTT against B230358A15Rik | inactive: -2.95 |
| CGGCAUUCAGAUUGUCUCUTT against Nup210 | inactive: 1.01 |
| GGAACUGCCUGAAAAAAUGTT against Dcn | inactive: 0.145 |
| GGCAGAAUUUCAGCAACCUTT against Asgr1 | inactive: 2.62 |
| GGAUAUUUUUAGUGUCUUGTT against 9330120H11Rik | inactive: 1.23 |
| GGCCAUCACUAUUAGCCUCTT against V1rl1 | inactive: 0.886 |
| GGAAUUGAACAUCAUUUGCTT against Suox | inactive: 1.07 |
| GGAUCAUACCAUACUGGCCTT against 2900041A09Rik | inactive: -0.106 |
| GGCCUUGGGCAUACUCAACTT against Star | inactive: 1.36 |
| GGAGAGACAGAGACAAAAUTT against Trim26 | inactive: -0.814 |
| GCAUGGAGGAAACCAUUAGTT against Slc38a3 | inactive: -0.521 |
| GAUUACCCAACGUACAGCUTT against Kb37 | inactive: -0.935 |
| GGAGUAUGCGUACCUGAAGTT against Nr0b2 | inactive: -1.68 |
| GCAGAUGGAAUUCACCGAATT against D330038K10Rik | inactive: -0.559 |
| GCCUGUACAUCAUGCGUGUTT against Rprm | inactive: 0.803 |
| CCUGAUGUGAAGAAAUCAATT against Akap10 | inactive: 3.2 |
| GCCAAAAACGGGCAUAUUGTT against Fech | inactive: 0.319 |
| GGCUACAACCUGAAAGAUGTT against 2900026H06Rik | inactive: -0.0657 |

| Sequence | z-score |
| --- | --- |
| GGAGAGACCACCUUUUGCUTT against AI837181 | inactive: -0.312 |
| GGACCUAAGGGAUCUAUUGTT against Col5a3 | inactive: -2.28 |
| GGAAGUCAUUCUUGAGAAGTT against 1700001E04Rik | inactive: -0.325 |
| CCUCUAGCUCCUAACCAUUTT against 6030498E09Rik | inactive: -0.965 |
| GUACGAAGACUUCUCUAGUTT against 5730557B15Rik | inactive: 1 |
| CCCUCAUGACAGCUUCGCATT against 5430401O09Rik | inactive: 1.14 |
| GGCACAAACAUGUGUUCUATT against V1rd3 | inactive: -0.358 |
| GGGAAUCACCCUGAGAAAGTT against Ccndbp1 | inactive: -2.07 |
| GGCUGAGGCAGCACUUACUTT against Jph3 | inactive: -0.0706 |
| CCUCGUGUGGAAUUUGAUCTT against Mug1 | inactive: 0.0166 |
| GCCACUUAAUGUCACUUUATT against Bag2 | inactive: 0.324 |
| CCCUCACAGUAACCUGUCGTT against Espl1 | inactive: -1.17 |
| CCUUGUUUCUAUCAAGACUTT against Scamp1 | inactive: 0.732 |
| GGACUUCACUGAAGAUUCATT against Acbd4 | inactive: 0.158 |
| GGAAGCAACAUGGAUACUATT against Evi1 | inactive: 0.69 |
| GGCAGUGUGAAGACAUUGATT against Scube1 | inactive: -1.5 |
| UCUACAAGUGGAUCACGGATT against Foxj1 | inactive: 0.906 |
| CCCAGAGACCUUUAUCAAUTT against Fbxl14 | inactive: 0.541 |
| GGGCGUAAUUAAGAAGGAATT against C230008H04Rik | inactive: -0.485 |
| UCUCUGUUCUGUAUACAGUTT against Olfr1414 | inactive: -0.3 |
| GGCUGUUGUGGAUUUUCUCTT against Olfr698 | inactive: 0.358 |
| GGACUUUUGUGUAUAGUUATT against Smad1 | inactive: 0.131 |
| GGAAACUAAUUUCAAGCCUTT against Hat1 | inactive: 0.356 |
| GGAGCUGAAAUCCUUUGUUTT against Dnttip1 | inactive: 0.457 |
| GGCAAAAGAUAUAAGCGGUTT against Mbd3l2 | inactive: -0.965 |
| GGUUUUGGAUUUGUGACUATT against Elavl2 | inactive: -0.463 |

Reprinted at random: two entries already listed

| Sequence | z-score |
| --- | --- |
| GCCACUUAAUGUCACUUUATT against Bag2 | inactive: 0.324 |
| GGAGCUGAAAUCCUUUGUUTT against Dnttip1 | inactive: 0.457 |

(next part)

| Sequence | z-score |
| --- | --- |
| CCACCCACUAAACCUAAAUTT against Pcolce | inactive: -0.139 |
| GGAGAUGCCUUCCAGAUUCTT against Pcdh12 | inactive: 2.59 |
| GGUCUUCUCUACCUGCUCCTT against Olfr796 | inactive: 1.04 |
| CCGGGAGAAUCAUCGAGAUTT against 1110020C03Rik | inactive: -1.49 |
| GCCACCUUAACAUUAGCCUTT against 1700012B18Rik | inactive: 0.247 |
| GCAGCCAAAUUCAUCCUCATT against 1300010A20Rik | inactive: -2.01 |
| GCCAUGCUAGUUUGAUACCTT against Bmp4 | inactive: 1.09 |
| GGGAUUUUUCCCUUAAUUCTT against Smad4 | inactive: -0.0953 |
| GGAAUGGAGAGAUCAGUAGTT against Cox7b | inactive: -1.43 |
| GGAGAACUGUCAGAACGAGTT against Gpx2 | inactive: -2.7 |
| GGAGUUCUCGGACUUUCUGTT against C87436 | inactive: 1.26 |
| GGCAGACCGUGUUAAAAUGTT against Dnajc2 | inactive: 0.12 |
| GGAAUCAGGAAUGCUACUUTT against AW550801 | inactive: -2.12 |
| GGUAUUUCACAAUCUUCUCTT against Pmpca | inactive: -0.0729 |
| GGCGUACAACAAAAAGCGGTT against AI467503 | inactive: -0.459 |
| GGCUUGCAAAGUGAAUCCUTT against Gls2 | inactive: 1.43 |
| GCUGCUAAGGAAUUUAAAATT against Topors | inactive: 0.0703 |
| GCAUGAAAAGCCUCUAUAUTT against Cxcl15 | inactive: 0.74 |
| GGUUGUCUGUCUGUCCAUCTT against 2900024D24Rik | inactive: 1.42 |
| GGCAAGCACACAAUGAUGCTT against 2310076L09Rik | inactive: -1.02 |
| GGAUCCCAAGUUCAAAGCCTT against Rfxap | inactive: 0.409 |
| CCUCUCUGAAAACAUGUCUTT against Sntb2 | inactive: 1.71 |
| GGAAAUAUCCUAAACAGAATT against Gdpd2 | inactive: -0.0131 |
| GUUGGACUAAGCGACCUUGTT against Rps29 | inactive: -2.89 |
| GGUGUUUCAUAAGAAGGAATT against 1700010H22Rik | inactive: -0.206 |
| GCUCAUGAAACUUUUGAACTT against Snf1lk | inactive: 1.39 |

| Sequence | z-score |
| --- | --- |
| GGUACAUUUUAAACAAUGCTT against Sdfr1 | inactive: 0.487 |
| GGGAUGUGUAUUUAAUUACTT against Nr6a1 | inactive: -1.16 |
| GGAAGACCCUAAUCUAGUCTT against Cox5b | inactive: -0.198 |
| GGUGAAUUCUCAUGCAUGGTT against Timp2 | inactive: 1.1 |
| GGAAACAAGGGACUCUGUATT against Col4a4 | inactive: -2.3 |
| AAAGACUGUGACCUCUGGGTT against Tgoln2 | inactive: -2.31 |
| GGCUCCUGGAAUUCUUACGTT against Snx11 | inactive: -0.695 |
| GGGCAGUCCUCGUUUCUUATT against Rad52b | inactive: -0.932 |
| CGCAGACAACAGAUAAGAATT against Gp38 | inactive: 1.05 |
| GCCUCUGGUGGAAGUAUACTT against Sec14l3 | inactive: -1.83 |
| UCAUUGGUCCAGCCUAUAGTT against A330070K13Rik | inactive: 0.0754 |
| CCCUGUUGAUGAACAAAUCTT against Ddt | inactive: 0.886 |
| GCAAACCUCAAUCUUGAAATT against Knsl7 | inactive: 1.19 |
| GGCUUCCAAAACAAAUCAATT against Rgn | inactive: -0.721 |
| GGCAGGAAAACAAAAGGGATT against Cobll1 | inactive: 0.402 |
| GGUGCAGACCAACAAGACATT against C630010N09 | inactive: -1.96 |
| CCAUCUAUUACGGAACGGGTT against Olfr324 | inactive: 1.62 |
| GGGAAAGUUUUGUUCUGUATT against Vil2 | inactive: -0.662 |
| GCAUUCAUGAAAGUGUUAGTT against Olfr164 | inactive: 1.23 |
| GGUAGACUAUCUGGAGACATT against Olfml3 | inactive: 0.367 |
| GGUGAAGUUACAGUCAAAUTT against Nolc1 | inactive: 1.3 |
| GGUUACCUGUAGAUGAUUCTT against Slc4a1ap | inactive: 1.28 |
| GUAGGAUAUACCAUCUACATT against Olfr700 | inactive: 0.929 |
| GCAUUUUAGAAGGUUAUCGTT against Dmrt2 | inactive: 1.04 |
| GGUACAGAACAUGUUCUAATT against Klf4 | inactive: -0.884 |
| CGAGAUUCUGCCUUUUCAGTT against Tcfcp2 | inactive: 0.487 |

Another view of some results above.
Sequence	z-score
GGUGAAUUCUCAUGCAUGGTT against Timp2	inactive: 1.1
GGCUCCUGGAAUUCUUACGTT against Snx11	inactive: -0.695
GGCAGGAAAACAAAAGGGATT against Cobll1	inactive: 0.402
GCAUUCAUGAAAGUGUUAGTT against Olfr164	inactive: 1.23
CGAGAUUCUGCCUUUUCAGTT against Tcfcp2	inactive: 0.487
